The list shows only some results of the screen, not a fair sample: it gathers tests that were run many times, whatever their T/C, doses with no T/C, and many T/C values between a quarter and a half above the control. Other doses and runs of a compound stand elsewhere. T/C is the treated group as % of the vehicle group. Some doses have a count of surviving animals in place of a T/C: the source files T/C as zero there, which appears to mark a toxic dose or a test without result, not a measured value. Some doses without a T/C left all or most animals alive at the check, yet need not have been tolerated: survival well below the control is almost never listed, so the zero probably covers shortened survival too. Counts of survivors are from the toxicity check (mostly the fifth day) where no day follows; animals may have died later. Schedules are NCI's codes, read here as Q, the interval in days (D) or hours (H), X, the number of doses. Some entries were tested several times; the results are listed from low to high. Where survival is the endpoint, the PubChem record calls one and a half times the control and up active, and a quarter to a half above the control has no call in these data; cut-offs in other NCI protocols can differ. Some T/C values are followed by the survivors on the day toxicity was checked, most often the fifth; without a count, all were alive then.
Tested on: P388 leukemia ip, CD2F1 mice, survival T/C
Test: NCI In Vivo Anticancer Drug Screen. Data for tumor model P388 Leukemia (intraperitoneal) in CD2F1 (CDF1) mice
Conditions: T/C endpoint: median survival time, higher T/C = longer survival
[1] = dose: 200.0 mg/kg/injection, schedule: Q01DX005 (ip), vehicle: Klucel (hydroxypropylcellulose) (HPC)
[2] = dose: 240.0 mg/kg/injection, schedule: Q01DX005 (ip), vehicle: saline with Tween-80
[3] = dose: 6.25 mg/kg/injection, schedule: Q01DX005 (ip), vehicle: Klucel (hydroxypropylcellulose) (HPC)
[4] = dose: 12.5 mg/kg/injection, schedule: Q01DX005 (ip), vehicle: Klucel (hydroxypropylcellulose) (HPC)
[5] = dose: 50.0 mg/kg/injection, schedule: Q01DX005 (ip), vehicle: Klucel (hydroxypropylcellulose) (HPC)
[6] = dose: 100.0 mg/kg/injection, schedule: Q01DX005 (ip), vehicle: Klucel (hydroxypropylcellulose) (HPC)
[7] = dose: 12.5 mg/kg/injection, schedule: Q01DX009 (ip), vehicle: other
[8] = dose: 200.0 mg/kg/injection, schedule: Q01DX009 (ip), vehicle: other
[9] = dose: 2.5 mg/kg/injection, schedule: Q01DX005 (ip), vehicle: Klucel (hydroxypropylcellulose) (HPC)
[10] = dose: 200.0 mg/kg/injection, schedule: Q01DX009 (ip), vehicle: saline
[11] = dose: 200.0 mg/kg/injection, schedule: Q01DX009 (ip), vehicle: Klucel (hydroxypropylcellulose) (HPC)
[12] = dose: 600.0 mg/kg/injection, schedule: Q01DX009 (ip), vehicle: saline

Compound: COC1=CC(=O)C2CC=CC(CC(=O)O)C2(C)C1=O (stereo not drawn)
- survivor count [1]: 0 of 5

Compound: COC(=O)c1nc2nnc(NC(=O)Nc3ccc(Cl)cc3)n2c(-c2ccccc2)c1C
- survivor count [2]: 6 of 6

Compound: [Cl][Sn]([CH2][Sn]([Cl])([c]1ccccc1)[c]1ccccc1)([c]1ccccc1)[c]1ccccc1
- T/C (dose: 1.56 mg/kg/injection, schedule: Q01DX005 (ip), vehicle: Klucel (hydroxypropylcellulose) (HPC)): 133 % of control
- survivor count (dose: 3.12 mg/kg/injection, schedule: Q01DX005 (ip), vehicle: Klucel (hydroxypropylcellulose) (HPC)): 0 of 6 and 3 of 6
- T/C [3]: 126 % of control
- survivor count [3]: 0 of 6
- survivor count [4]: 0 of 6
- survivor count [5]: 2 of 6
- survivor count [6]: 0 of 6
- survivor count [1]: 0 of 6

Compound: O=C1OI(OI2OC(=O)c3ccccc32)c2ccccc21
- T/C (dose: 120.0 mg/kg/injection, schedule: Q01DX005 (ip), vehicle: Klucel (hydroxypropylcellulose) (HPC)): 126 % of control [5 of 6 alive]
- survivor count (dose: 240.0 mg/kg/injection, schedule: Q01DX005 (ip), vehicle: Klucel (hydroxypropylcellulose) (HPC)): 0 of 6

Compound: CCCC(NC(=O)OCc1ccccc1)C(=O)NC(C)C(=O)O (stereo not drawn)
- survivor count [1]: 5 of 5

Compound: NS(=O)(=O)c1cc2c(cc1Cl)NC(CCC(=O)O)=NS2(=O)=O
- survivor count [7]: 6 of 6
- survivor count [8]: 6 of 6

Compound: COC(=O)C12OCC34C(CC5C(C)C6=CC(=O)OC6=CC5(C)C3C(O)C1O)OC(=O)C(O)C24 (stereo not drawn)
- T/C [9]: 138 % of control [5 of 6 alive]
- survivor count [9]: 0 of 6
- survivor count (dose: 5.0 mg/kg/injection, schedule: Q01DX005 (ip), vehicle: Klucel (hydroxypropylcellulose) (HPC)): 0 of 6
- survivor count (dose: 10.0 mg/kg/injection, schedule: Q01DX005 (ip), vehicle: Klucel (hydroxypropylcellulose) (HPC)): 0 of 6
- survivor count (dose: 20.0 mg/kg/injection, schedule: Q01DX005 (ip), vehicle: Klucel (hydroxypropylcellulose) (HPC)): 0 of 6

Compound: O=C(CCCl)N/N=C/c1ccccc1
- T/C (dose: 19.5 mg/kg/injection, schedule: Q01DX009 (ip), vehicle: saline + alcohol): 144 % of control
- survivor count (dose: 20.0 mg/kg/injection, schedule: Q01DX009 (ip), vehicle: saline): 3 of 6
- survivor count (dose: 39.0 mg/kg/injection, schedule: Q01DX009 (ip), vehicle: saline + alcohol): 4 of 6
- survivor count (dose: 40.0 mg/kg/injection, schedule: Q01DX009 (ip), vehicle: saline): 0 of 6
- survivor count (dose: 78.0 mg/kg/injection, schedule: Q01DX009 (ip), vehicle: saline + alcohol): 0 of 6

Compound: O=CNc1nc[nH]c1-c1noc(=O)[nH]1
- survivor count (dose: 200.0 mg/kg/injection, schedule: Q04DX002 (ip), vehicle: saline): 5 of 6
- survivor count (dose: 400.0 mg/kg/injection, schedule: Q04DX002 (ip), vehicle: saline): 0 of 6

Compound: Cc1ccc(C=C(C#N)C#N)o1
- survivor count [2]: 0 of 6

Compound: CCCC[NH-].CCCC[NH-].[I][Pt+2][I]
- T/C (dose: 1.56 mg/kg/injection, schedule: Q01DX009 (ip), vehicle: other): 128 and 132 % of control
- T/C (dose: 3.13 mg/kg/injection, schedule: Q01DX009 (ip), vehicle: other): 128 and 138 % of control
- T/C (dose: 6.25 mg/kg/injection, schedule: Q01DX009 (ip), vehicle: other): 129 and 138 % of control
- survivor count [7]: 1 of 6 and 6 of 6
- survivor count (dose: 25.0 mg/kg/injection, schedule: Q01DX009 (ip), vehicle: other): 0 of 6
- survivor count (dose: 50.0 mg/kg/injection, schedule: Q01DX009 (ip), vehicle: other): 0 of 6
- survivor count (dose: 100.0 mg/kg/injection, schedule: Q01DX009 (ip), vehicle: other): 0 of 6
- survivor count [8]: 0 of 6

Compound: CCOC(=O)C/C(C)=N\N(C)C(N)=O
- survivor count [10]: 6 of 6

Compound: COc1cccc(CSC(=N)N)c1
- survivor count (dose: 100.0 mg/kg/injection, schedule: Q01DX009 (ip), vehicle: Klucel (hydroxypropylcellulose) (HPC)): 4 of 6
- survivor count [11]: 0 of 6

Compound: CCN(CC)CC1(C)NN=C2C(n3cccc3)=CC=CN21 (stereo not drawn)
- survivor count (dose: 240.0 mg/kg/injection, schedule: Q01DX005 (ip), vehicle: saline): 3 of 6

Compound: O=C(O[Si](Cc1ccccc1)(Cc1ccccc1)Cc1ccccc1)N(CCCl)CCCl
- T/C (dose: 12.5 mg/kg/injection, schedule: Q04DX003 (ip), vehicle: saline): 134 % of control

Compound: Cn1c(=O)c2[nH]c(Cc3ccsc3)nc2n(C)c1=O
- survivor count [11]: 6 of 6
- survivor count (dose: 400.0 mg/kg/injection, schedule: Q01DX009 (ip), vehicle: Klucel (hydroxypropylcellulose) (HPC)): 0 of 6

Compound: C1=C[N-]c2c3c(ccc2=C1)=CC=C[N-]3.C1=C[N-]c2c3c(ccc2=C1)=CC=C[N-]3.C1C[N-]C2C(C1)CCC1CC[N-]CC12.[Ni]
- survivor count (dose: 12.5 mg/kg/injection, schedule: Q01DX005 (ip), vehicle: saline): 0 of 6
- survivor count (dose: 50.0 mg/kg/injection, schedule: Q01DX005 (ip), vehicle: saline): 0 of 6
- survivor count (dose: 100.0 mg/kg/injection, schedule: Q01DX005 (ip), vehicle: saline): 0 of 6
- survivor count (dose: 200.0 mg/kg/injection, schedule: Q01DX005 (ip), vehicle: saline): 0 of 6

Compound: COc1ccc(N=Nc2c(-c3cccs3)nn(C(=S)SC)c2C(F)(F)F)cc1
- survivor count (dose: 60.0 mg/kg/injection, schedule: Q01DX005 (ip), vehicle: saline with Tween-80): 0 of 6
- survivor count (dose: 120.0 mg/kg/injection, schedule: Q01DX005 (ip), vehicle: saline with Tween-80): 0 of 6
- survivor count [2]: 0 of 6

Compound: COC(=O)C(F)C(N)C(=O)O (stereo not drawn)
- survivor count (dose: 100.0 mg/kg/injection, schedule: Q04DX003 (ip), vehicle: saline): 6 of 6

Compound: COc1ccc(/C=C(/C)[N+](=O)[O-])cc1OC
- T/C (dose: 50.0 mg/kg/injection, schedule: Q01DX009 (ip), vehicle: saline): 125 % of control
- T/C (dose: 100.0 mg/kg/injection, schedule: Q01DX009 (ip), vehicle: saline): 130 % of control

Compound: COC(CN1C(=O)CSC1=S)OC
- survivor count (dose: 25.0 mg/kg/injection, schedule: Q01DX009 (ip), vehicle: saline with Tween-80): 5 of 6

Compound: CCCCCC(CN(C)C)C(/C=C/c1ccc(Cl)c(Cl)c1)=N\O (stereo not drawn)
- survivor count [10]: 1 of 6

Compound: CCC1(CC)C(=O)NC(=O)[N]([Sn]([CH2]C)([CH2]C)[N]2C(=O)NC(=O)C(CC)(CC)C2=O)C1=O
- T/C [3]: 128 % of control
- T/C [4]: 138 % of control [5 of 6 alive]
- survivor count [5]: 2 of 6
- survivor count [6]: 0 of 6
- survivor count [1]: 0 of 6

Compound: Cc1ccc(/[N+]([O-])=N/N2C(=O)c3ccccc3C2=O)cc1
- survivor count [1]: 2 of 6

Compound: CCN1CCC(Nc2ccnc3cc(Cl)ccc23)CC1
- survivor count [1]: 0 of 5
- survivor count (dose: 200.0 mg/kg/injection, schedule: Q01DX005 (ip), vehicle: saline with Tween-80): 1 of 5

Compound: NCCc1ccc(O)c(O)c1
- T/C (dose: 150.0 mg/kg/injection, schedule: Q01DX009 (ip), vehicle: saline): 129 and 140 % of control
- T/C (dose: 300.0 mg/kg/injection, schedule: Q01DX009 (ip), vehicle: saline): 137 [5 of 6 alive] and 140 % of control
- T/C [12]: 138 % of control
- survivor count [12]: 3 of 6
- survivor count (dose: 1200.0 mg/kg/injection, schedule: Q01DX009 (ip), vehicle: saline): 2 of 6

— PubChem BioAssay AID330 (DTP/NCI, 2004)
